# In PubChem BioAssay AID2685 (National Center for Advancing Translational Sciences (NCATS), 2010):
# In all, about 320,000 compounds went through this assay and about 2,100 (0.66%) were called active. The inconclusive results got no clear call from the source; some entries with a clear call stand among them for comparison. Calls come from the whole dose curve; as a rule, active = well fitted inhibition curve with a large enough effect in the signal ratio, with a control signal flat (not every such curve was filed as active); inconclusive = small, poorly fitted or top-dose-only effect, or effect the other way, or a change in a side signal; inactive = flat fitted curve, though single readings scatter; the % refers to the signal ratio. Potencies of inconclusive entries are doubtful fits and often do not repeat.
# Experiment: qHTS Assay for Lipid Storage Modulators in Drosophila S3 Cells
# Settings: BODIPY lipid droplet fluorescence, 18-24 h, cells fed with added oleic acid; lipid storage change, negative = inhibition: at 46.1 µM (top of the series) unless noted
# Procedure, shortened: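 Drosophila S3 cells got compounds at several concentrations plus oleic acid (400 uM solution). Laser-scanning cytometry with 488 nm excitation read lipid droplets at 500-530 nm and cells at 575-640 nm. Percent activity was relative to 20 uM Triacsin C.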
# % is set by controls: 0 for no effect and ±100 for the full control effect; potency is the fitted concentration of half-maximal effect.
SMILES,Potency,"lipid storage change, negative = inhibition"
CCN(CC)S(=O)(=O)c1ccc(NC=C(C#N)C#N)cc1,"inconclusive: 20.6 µM [falling, single point]",–
Cc1ccc(Cl)c(OCC(=O)Nc2ccccc2N2CCCCC2)c1,"inconclusive: 4.61 µM [activator, partial curve]",–
CC(C(=O)N1CCN(c2ccccc2F)CC1)c1ccc([N+](=O)[O-])cc1 (centres undefined),"inconclusive: 0.82 µM [falling, full curve, poor fit]",–
COc1ccc(CNc2ncc(-c3ccccc3)n2C)c2ccccc12,–,inconclusive: 64.2%
O=C(CSc1nnc(-c2ccccn2)n1Cc1ccccc1)NC1CCCC1,–,inconclusive: -9.51%
COc1ccc(NC(=S)Nc2ccccc2OC)c(OC)c1,"inconclusive: 29.1 µM [falling, single point]",–
COc1ccc(NC(=O)COc2coc(CN3CCc4ccccc4C3)cc2=O)cc1,"inconclusive: 29.1 µM [falling, single point]",–
CCC1(c2ccccc2)NC(=O)N(CC(=O)Nc2cc(C(F)(F)F)ccc2N2CCCC2)C1=O (centres undefined),–,inconclusive: 0.236%
O=C(CCS(=O)(=O)c1ccc(Br)s1)Nc1ccccc1Br,–,inconclusive: 49.8%
O=C(COC(=O)/C=C/c1ccco1)NCc1ccc2c(c1)OCO2,–,inconclusive: 14.3%
CCCCn1c(C(C)NC(=O)CCC)nc2ccccc21 (centres undefined),"inconclusive: 14.6 µM [activator, single point]",–
CCN(c1ccccc1)S(=O)(=O)c1c[nH]c2ccc([N+](=O)[O-])cc12,active: 5.8 µM,–
CC(=O)c1ccc(NC(=O)COC(=O)c2ccccc2Nc2ccccc2)cc1,–,inconclusive: -22.1%
CCOC(=O)c1ccccc1N/C=C1\CCCCC1=O,–,inconclusive: -13.6%
CC(=O)Nc1ccc(S(=O)(=O)N2CCN(C(=O)CCC3CCCC3)CC2)cc1,–,inconclusive: 20.7%
O=C(NC1CCCC1)C(=O)N(Cc1cccnc1)C(C(=O)NC1CCCC1)c1ccco1 (centres undefined),–,inconclusive: -0.78%
COc1cc2nc(SCc3ccc(F)cc3)n(Cc3cccs3)c(=N)c2cc1OC,–,inconclusive: -41.2%
Cc1ccc(C)c(COC(=O)CCN=C2NS(=O)(=O)c3ccccc32)c1,"inconclusive: 1.84 µM [falling, partial curve, poor fit]",–
Cn1c(-c2cc3c(C(F)(F)F)nn(C)c3s2)n[nH]c1=S,–,inconclusive: -7.21%
CC(=O)N1c2ccc(S(=O)(=O)N3CCC(C(=O)NCc4ccc(C)cc4)CC3)cc2CC1C (centres undefined),"inconclusive: 6.51 µM [activator, single point]",–
COc1ccccc1-n1c(SCC(=O)c2ccc(O)cc2O)nc2cc([N+](=O)[O-])ccc21,–,inconclusive: 10.1%
CCOC(=O)CNC(=O)CSc1nc2cccnc2n1C,–,inconclusive: 6.5%
CCn1c(SCC(=O)Nc2ccc3c(c2)OCCO3)nnc1C1CC1,"inconclusive: 23.1 µM [activator, partial curve]",–
OCC1(CCc2ccccc2)CCN(Cc2ccccc2Cl)CC1,–,inactive: 5.38%
Cn1cncc1C(=O)c1ccccc1,–,inconclusive: -3.3%

# Complete entries from above. Values in the order: Potency	lipid storage change, negative = inhibition
# Cc1ccc(C)c(COC(=O)CCN=C2NS(=O)(=O)c3ccccc32)c1 as listed: inconclusive: 1.84 µM [falling, partial curve, poor fit]	–
# CCC1(c2ccccc2)NC(=O)N(CC(=O)Nc2cc(C(F)(F)F)ccc2N2CCCC2)C1=O (centres undefined) as listed: –	inconclusive: 0.236%

# The list goes on.

SMILES,Potency,"lipid storage change, negative = inhibition"
Cn1c(CCN2CCOCC2)nc2cc(NC(=O)COc3ccc(Cl)cc3)ccc21,–,inconclusive: -17.7%
COc1ccc(-n2nc3c(c2NC(=O)c2ccco2)CS(=O)(=O)C3)cc1,"inconclusive: 23.1 µM [activator, single point]",–
CCN(CC)S(=O)(=O)c1ccc(O)c(NC(=O)c2ccc(N3CCOCC3)c([N+](=O)[O-])c2)c1,–,inconclusive: 233%
COC(=O)c1sccc1N/N=C/c1ccc(OC)c(OC)c1OC,–,inconclusive: 15.1%
Cc1nc2ccccc2c(=O)n1-c1ccc(F)c(NC(=O)c2cccs2)c1,–,inconclusive
O=C(NCc1ccc(OC(F)(F)F)cc1)C1CCC(=O)N(C2CC2)C1 (centres undefined),"inconclusive: 20.6 µM [falling, single point]",–
Cc1ccc(C)c(OCCC(=O)OCC(=O)NCc2ccc(F)cc2)c1,–,inconclusive: 6.67%
COC(=O)c1cccc(Cn2c(Cl)c(/C=N/Nc3ccccc3C)sc2=O)c1,–,inconclusive: -130%
COC(=O)C1CSc2[nH]c(=O)sc2C1c1ccccc1 (centres undefined),–,inconclusive: 8.37%
COc1ccccc1N1CCN(C(=O)c2cc(C(=O)N3CCN(c4ccccc4OC)CC3)cc([N+](=O)[O-])c2)CC1,–,inconclusive: 12.3%
NC(=S)N1OC[C@@H]2COc3ccc4ccccc4c3[C@@H]21,–,inconclusive: 13.4%
CCOC(=O)Nc1ccc(OC)c([N+](=O)[O-])c1,–,inconclusive: -3.16%
C=CCOc1ccc(C2c3c(oc4ccccc4c3=O)C(=O)N2CCCN2CCOCC2)cc1 (centres undefined),–,inconclusive: 16.7%
COCC(=O)N(Cc1cc2cc(C)ccc2[nH]c1=O)c1ccc(C)c(C)c1,"inconclusive: 29.1 µM [falling, single point]",–
CN(Cc1nc2ccccc2n1C)S(=O)(=O)c1ccc(F)cc1,–,inconclusive: 37.4%
O=C(CCCN1C(=O)S/C(=C\C=C\c2ccccc2)C1=O)Nc1ccc(O)cc1,"inconclusive: 7.94 µM [activator, partial curve]",–
Cn1ccnc1SCC(=O)c1c[nH]c2ccccc12,"inconclusive: 0.0651 µM [activator, full curve, poor fit]",–
COc1ccc(NC(=O)COc2cccc3c2CCN(C)C3=O)c(OC)c1,–,inconclusive: -36.1%
COc1ccc(Nc2ccc(N3C(=O)CCC3=O)cc2[N+](=O)[O-])cn1,"inconclusive: 20.6 µM [activator, partial curve, poor fit]",–
O=C(O)c1ccc(-c2nc(-c3ccc(Cl)cc3Cl)cs2)cc1,"inconclusive: 6.51 µM [falling, single point]",–
Cc1cccn2c(CN(C)C3CCCc4ccccc43)c(C(=O)N3CCOCC3)nc12 (centres undefined),–,inconclusive: 15.5%
CC(Sc1nnc(-c2cccs2)n1-c1ccccc1)C(=O)NCc1ccc2c(c1)OCO2 (centres undefined),–,inconclusive: 38.3%
COc1ccc(C2=NN(C(C#N)c3ccc(OC)c(OC)c3)C(c3ccccc3)C2)cc1 (centres undefined),"inconclusive: 18.4 µM [rising, partial curve]",–
O=C(O)c1cccc(C(=O)Nc2cccc(NC(=O)C3CCCO3)c2)c1 (centres undefined),"inconclusive: 0.517 µM [falling, full curve, poor fit]",–
CN(Cc1cccs1)C(=O)c1ccc(S(=O)(=O)N2CCCCC2)cc1,–,inconclusive: 13.7%

SMILES,Potency,"lipid storage change, negative = inhibition"
CC(C)CNC(=O)COC(=O)c1ccccc1SCC(=O)NCC(C)C,–,inconclusive: 25%
CCOC(=O)C1CCCN(Cc2ccc3c(c2)OCO3)C1 (centres undefined),–,inconclusive: 6.71%
O=C(NNc1c(F)c(F)cc(F)c1F)c1cc2ccccc2oc1=O,–,inconclusive: 5.07%
CCCCC(=O)N/N=C(/C)C1=C(C)C(C)(C)OC1=O,–,inconclusive: 62.3%
CCN(CC)CCOc1ccc2c(c1)C(=NO)c1cc(OCCN(CC)CC)ccc1-2,–,inconclusive: -13.1%
CCOC(=O)C1CCCN(S(=O)(=O)c2c(C(=O)N3CCCCC3)c(C)n(C)c2C)C1 (centres undefined),–,inconclusive: 23.8%
Cc1cccc2cc(COC(=O)c3cccs3)c(=O)[nH]c12,–,inconclusive: 19.5%
CN(c1c[nH]c(=O)[nH]c1=O)C1CCCCC1,–,inconclusive: -14%
CC1(C)C(=O)NCCN1C(=O)CC1C(=O)NCCN1CC(c1ccccc1)c1ccccc1 (centres undefined),"inconclusive: 0.651 µM [falling, full curve, poor fit]",–
O=C(NNC(=S)Nc1ccc(Br)cc1)c1ccccc1,–,inconclusive: -5.31%
COc1cc(OC)cc(-n2nc(C(=O)NCCCN3CCOCC3)c3ccccc3c2=O)c1,"inconclusive: 5.8 µM [activator, partial curve]",–
O=C(Nc1ccc(S(=O)(=O)NC2=NCCCCC2)cc1)c1ccco1,"inconclusive: 6.51 µM [rising, partial curve, poor fit]",–
COc1ccc(-c2[nH]ncc2CN2CCC(OCc3ccccc3)CC2)c(F)c1,–,inconclusive: 21.9%
O=[N+]([O-])c1ccc(N2CCN(Cc3ccc([N+](=O)[O-])o3)CC2)cc1,"inconclusive: 23.1 µM [falling, partial curve, poor fit]",–
CN(Cc1ccccc1Cl)C(=O)C1CCC(=O)N(C2CCCCCC2)C1 (centres undefined),–,inconclusive: -8.98%
O=C(OC1CCS(=O)(=O)c2sccc21)c1ccccc1 (centres undefined),–,inconclusive: 16.7%
O=C(COC(=O)c1nc(-c2ccccc2)n(-c2cccc(C(F)(F)F)c2)n1)NCc1cccs1,–,inconclusive: 27.4%
CCN(CC)S(=O)(=O)c1ccc(NC(=O)c2ccc(Sc3nncn3C)c([N+](=O)[O-])c2)cc1,–,inconclusive: 15.5%
Cc1cc(C)nc(NC(=NCCc2c[nH]c3ccccc23)NC(=O)Nc2ccc(Cl)cc2)n1,"inconclusive: 16.4 µM [falling, single point]",–
O=C(COC(=O)c1cc(S(=O)(=O)N2CCCCC2)ccc1N1CCOCC1)c1ccc(F)cc1,–,inconclusive
CC(C)N(C(=O)COC(=O)Cn1cnc2ccccc21)c1ccccc1,–,inconclusive
O=[N+]([O-])c1cccc(N(CC(O)CN2CCCCC2)S(=O)(=O)c2ccccc2)c1 (centres undefined),"inconclusive: 6.51 µM [falling, single point]",–
COC(=O)Nc1cc(C)nc2ccccc12,"inconclusive: 29.1 µM [activator, single point]",–
COc1ccc(C(=O)O)cc1S(=O)(=O)Nc1ccccc1C(=O)NCc1ccc2c(c1)OCO2,"inconclusive: 0.82 µM [falling, full curve]",–

# Some of the entries above in a different format:
SMILES	Potency	lipid storage change, negative = inhibition
COc1cc(OC)cc(-n2nc(C(=O)NCCCN3CCOCC3)c3ccccc3c2=O)c1	inconclusive: 5.8 µM [activator, partial curve]	–
O=C(COC(=O)c1nc(-c2ccccc2)n(-c2cccc(C(F)(F)F)c2)n1)NCc1cccs1	–	inconclusive: 27.4%
